Test results as given in the supplement of paper PMC6078165.
The reference is the same well before dosing, and untreated signal decays as well.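 Fibroblast labels denote human fibroblasts, mainly primary ones from uterus (C12385, HUF), lung (H6013), bone (Hs27A), adrenal (HADF) and skin (WS1), plus mammary HMF and breast cancer-associated Hs343T. Cancer cells are basal-like or mesenchymal-like triple-negative breast cancer lines. A hit is a response shift exceeding 3x replicate standard deviation. The tissue of the other fibroblasts is not given here.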

Tested on: BT20
Test: relative JC-1 red fluorescence (viability) vs pre-drug, coculture with fibroblast (fraction); higher = more viable cancer cells
Protocol: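 JC-1 labelled TNBC cells cocultured 1:1 (1,500 cells each) with CellTrace Violet stained primary or stromal fibroblasts in 384-well plates in FluoroBrite medium, treated with one of 42 anticancer drugs at 0.1, 1, 10 or 100 uM. JC-1 red fluorescence (mitochondrial integrity in cancer cells only) was read by plate reader every 8 h for 72 h. Values are normalised to each well's pre-drug value. The stock of one drug was tenfold lower, so its dose labels may be too high.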

COc1cc([C@@H]2c3cc4c(cc3[C@@H](O[C@@H]3O[C@@H]5CO[C@@H](C)O[C@H]5[C@H](O)[C@H]3O)[C@H]3COC(=O)[C@H]23)OCO4)cc(OC)c1O [Etoposide]
relative JC-1 red fluorescence
Conditions	8 h	16 h	24 h	32 h	40 h	48 h	56 h	64 h	72 h
10 µM, coculture fibroblast: C12385	0.8762	0.8097	0.7768	0.692	0.635	0.612	0.592	0.57	0.556
10 µM, coculture fibroblast: H6013	0.917	0.908	0.933	0.88	0.84	0.828	0.852	0.853	0.852
10 µM, coculture fibroblast: H6019	0.857	0.775	0.735	0.638	0.561	0.518	0.466	0.441	0.426
10 µM, coculture fibroblast: H6076	0.852	0.89	0.791	0.741	0.691	0.658	0.645	0.642	0.626
10 µM, coculture fibroblast: H6231	0.819	0.903	0.7874	0.707	0.641	0.589	0.557	0.533	0.514
10 µM, coculture fibroblast: HADF	0.926	0.9	0.827	0.754	0.691	0.638	0.619	0.607	0.586
10 µM, coculture fibroblast: HCFa	0.918	0.8692	0.849	0.754	0.697	0.656	0.638	0.6194	0.59
10 µM, coculture fibroblast: HCPF	0.929	0.9003	0.828	0.774	0.741	0.696	0.66	0.654	0.62
10 µM, coculture fibroblast: HHSteC	0.927	0.893	0.887	0.813	0.736	0.702	0.683	0.655	0.635
10 µM, coculture fibroblast: HMF	0.851	0.898	0.781	0.685	0.638	0.579	0.56	0.545	0.517
10 µM, coculture fibroblast: HPFa	0.9147	0.875	0.8768	0.789	0.755	0.72	0.719	0.695	0.654
10 µM, coculture fibroblast: HUF	0.882	0.783	0.739	0.642	0.584	0.542	0.521	0.5	0.484
10 µM, coculture fibroblast: Hs5	0.938	0.91	0.829	0.773	0.724	0.679	0.666	0.656	0.658
10 µM, coculture fibroblast: Hs27A	0.845	0.886	0.917	0.854	0.84815	0.877	0.861	0.857	0.836
10 µM, coculture fibroblast: Hs343T	0.972	0.875	0.763	0.681	0.626	0.587	0.569	0.554	0.535
10 µM, coculture fibroblast: WS1	0.852	0.78165	0.7445	0.658	0.58808	0.5576	0.52	0.495	0.4811
100 µM, coculture fibroblast: C12385	0.896	0.8653	0.8238	0.7125	0.629	0.6042	0.5798	0.56	0.56
100 µM, coculture fibroblast: H6013	0.838	0.9495	0.93	0.852	0.8104	0.8087	0.82991	0.8215	0.803
100 µM, coculture fibroblast: H6019	0.8408	0.784	0.741	0.621	0.556	0.549	0.539	0.541	0.546
100 µM, coculture fibroblast: H6076	0.865	0.949	0.788	0.696	0.641	0.595	0.596	0.59	0.574
100 µM, coculture fibroblast: H6231	0.837	0.907	0.746	0.638	0.589	0.54	0.496	0.489	0.478
100 µM, coculture fibroblast: HADF	0.977	0.8934	0.818	0.732	0.697	0.651	0.653	0.646	0.622
100 µM, coculture fibroblast: HCFa	0.9462	0.878	0.811	0.721	0.669	0.664	0.669	0.667	0.652
100 µM, coculture fibroblast: HCPF	0.8182	0.9319	0.847	0.785	0.741	0.703	0.687	0.688	0.649
100 µM, coculture fibroblast: HHSteC	0.94	0.914	0.867	0.76	0.716	0.684	0.69	0.687	0.684
100 µM, coculture fibroblast: HMF	0.927	0.9143	0.7722	0.659	0.606	0.557	0.528	0.513	0.5
100 µM, coculture fibroblast: HPFa	0.941	0.9049	0.848	0.735	0.708	0.685	0.681	0.671	0.639
100 µM, coculture fibroblast: HUF	0.896	0.837	0.8	0.692	0.63	0.596	0.594	0.5844	0.5877
100 µM, coculture fibroblast: Hs5	0.891	0.927	0.8112	0.735	0.6778	0.634	0.608	0.58	0.561
100 µM, coculture fibroblast: Hs27A	0.764	0.883	0.9505	0.8594	0.819	0.816	0.813	0.8	0.7612
100 µM, coculture fibroblast: Hs343T	0.9868	0.893	0.723	0.62	0.569	0.519	0.494	0.48	0.475
100 µM, coculture fibroblast: WS1	0.864	0.8	0.739	0.631	0.557	0.531	0.507	0.491	0.487
